Assay results taken from patent publication US7056355B2, “Hair dye composition and dyeing method” (Kao Corporation, priority 2002, dated 2006).
Several values for one entry are separate records, joined by “and”; a condition that tells them apart may be missing. Identical values can stand only once. Entries after “also recorded” stand apart in the source; their conditions may differ.

Legend:
[1] = Dyeing performance in General Formulation A on undamaged white goat hair (colour, L, a, b, delta E); conditions: for L / a / b: after dyeing; for L / a / b / Delta E: 50° C. 15 min; for Delta E: before vs after colouring; for Color of Dyed Hair: pH 10, 50° C. for 15 min
[2] = Dyeing performance in General Formulation A on undamaged human blond hair (colour, L, a, b, delta E); conditions: undamaged human blonde hair; for L / a / b: after dyeing; for L / a / b / Delta E: 50° C. 15 min; for Delta E: before vs after colouring; for Color of Dyed Hair: pH 10, 50° C. for 15 min

SMILES | L [1] | a [1] | b [1] | Delta E [1] | Color of Dyed Hair [1] | L [2] | a [2] | b [2] | Delta E [2] | Color of Dyed Hair [2]
CS(=O)(=O)Nc1cccc2c(/N=N/c3ccc(S(C)(=O)=O)cc3C#N)ccc(O)c12 [Dye D-27] | 37 | 10 | −26 | 63 | Bright Blue | 32 | 2 | −4 | 23 | Blue
N#CC(/N=N/c1ccc(S(N)(=O)=O)cc1)C(=O)c1ccccc1 [Dye D-14] | 84 | −11 | 65 | 52 | Intense Yellow; also recorded: Very Intense Yellow | 56 | 4 | 35 | 21 | Intense Yellow; also recorded: Very Intense
COCCOc1ccc(/N=N/C2C(=O)N(c3ccccc3)N=C2C(N)=O)cc1S(N)(=O)=O [Dye D-9] | 83 | −2 | 57 | 44 | Bright Yellow | 56 | 6 | 30 | 16 | Bright Yellow
CCOC(=O)Nc1cc(/N=N/c2ccc(S(C)(=O)=O)cc2C#N)c2c(NS(C)(=O)=O)cccc2c1O [Dye D-24] | 56 | −11 | −16 | 44 | Cyan | 43 | −6 | 7 | 16 | Olive Brown
CS(=O)(=O)c1ccc(/N=N/c2ccc(O)c3ccccc23)c(C#N)c1 [Dye D-25] | 38 | 8 | −5 | 51 | Ash Blue | 34 | 6 | 9 | 11 | Ash Blue
N#CC1=NN(c2ccccc2)C(=O)C1/N=N/c1cc(Cl)c(S(N)(=O)=O)cc1Cl [Dye D-18] | 75 | 18 | 66 | 56 | Yellow-Orange | 62 | 6 | 34 | 23 | Yellow-Orange
CC(C)C(=O)Nc1cc(/N=N/c2ccc(S(C)(=O)=O)cc2S(C)(=O)=O)ccc1O [Dye D-5] | 48 | 42 | −2 | 58 | Pink | 42 | 21 | 12 | 17 | Light Pink
Cc1nn2nc(C)c(/N=N/c3cc(Cl)c(S(N)(=O)=O)cc3Cl)c2[nH]1 [Dye D-16] | 82 | 1 | 66 | 52 | Bright Yellow | 60 | 3 | 19 | 25 | Bright Yellow
COc1ccc(/N=N/C2C(=O)N(c3ccc(S(N)(=O)=O)cc3)N=C2C#N)cc1 [Dye D-15] | 76 | 13 | 62 | 50 | Orange/Gold | 54 | 9 | 36 | 21 | Orange/Gold
COc1ccc(S(N)(=O)=O)cc1/N=N/C1C(=O)N(c2ccccc2)N=C1C#N [Dye D-29] | 80 | 3 | 70 | 56 | Bright Yellow | 54 | 7 | 35 | 20 | Bright Yellow
N#CC(/N=N/c1ccc(C(=O)O)cc1)C(=O)c1ccccc1 (stereo not drawn) [C*, reference compound] | 87 | −6 | 31 | 19 | Pale Yellow | 52 | 6 | 25 | 12 | Pale Yellow
NS(=O)(=O)c1cccc(S(=O)(=O)Nc2cccc3c(O)ccc(/N=N/c4ccc([N+](=O)[O-])cc4)c23)c1 [Dye D-22] | 44 | −4 | −4 | 45 | Cyan | 36 | −2 | 7 | 15 | Olive Brown
Cc1nn2nc(C(C)(C)C)c(/N=N/c3cc(Cl)c(S(N)(=O)=O)cc3Cl)c2[nH]1 [Dye D-17] | 78 | 7 | 71 | 57 | Bright Gold | 56 | 6 | 36 | 22 | Bright Gold
COc1ccc(/N=N/C2C(=O)N(c3ccccc3)N=C2C#N)cc1 [Dye D-7] | 76 | 14 | 74 | 62 | Intense Gold | 53 | 10 | 44 | 28 | Intense Gold
N#CC1=NN(c2ccccc2)C(=O)C1/N=N/c1ccc(S(=O)(=O)[O-])cc1.[Na+] (stereo not drawn) [B*, reference compound] | 85 | −5 | 42 | 43 | Pale Yellow | 55 | 6 | 26 | 13 | Pale Yellow
CS(=O)(=O)Nc1cccc2c(O)c(C(=O)N3CCOCC3)cc(/N=N/c3ccc(Cl)cc3)c12 [Dye D-4] | 48 | 51 | −2 | 65 | Intense Pink | 33 | 31 | 9 | 28 | Pink
CS(=O)(=O)Nc1cccc2c(O)ccc(/N=N/c3ccc([N+](=O)[O-])cc3S(C)(=O)=O)c12 [Dye D-21] | 37 | −17 | −18 | 60 | Intense Cyan | 35 | – | −4 | 33 | Intense Cyan
CS(=O)(=O)c1cc([N+](=O)[O-])ccc1/N=N/c1cc(S(=O)(=O)Nc2ccccc2)c2ccccc2c1O [Dye D-23] | 44 | 9 | −22 | 56 | Blue | 36 | 2 | 1 | 17 | Ash Blue
N#CC1=NN(c2ccccc2)C(=O)C1/N=N/c1ccc(C(=O)O)cc1 (stereo not drawn) [A*, reference compound] | 86 | −6 | 41 | 42 | Pale Yellow | 55 | 7 | 26 | 13 | Pale Yellow
Cc1cc(S(N)(=O)=O)c(C)cc1/N=N/C1C(=O)N(c2ccccc2C)N=C1C#N [Dye D-10] | 79 | 3 | 68 | 54 | Bright Gold Yellow | 56 | 6 | 36 | 22 | Bright Gold
N#CC1=NN(c2ccccc2)C(=O)C1/N=N/c1ccc(S(N)(=O)=O)cc1 [Dye D-6] | 81 | 0 | 72 | 58 and 59 | Bright Yellow; also recorded: Very Intense | 57 | 7 | 41 | 26 | Bright Yellow; also recorded: Very Intense
COCCOc1ccc(/N=N/C2C(=O)N(c3ccccc3)N=C2C#N)cc1S(N)(=O)=O [Dye D-8] | 84 | −3 | 63 | 49 | Bright Yellow | 58 | 6 | 30 | 18 | Bright Yellow
CS(=O)(=O)c1cc([N+](=O)[O-])ccc1/N=N/c1ccc(O)c2cccc(S(=O)(=O)O)c12 [D*, reference compound] | 65 | −13 | 2 | 23 | Pale Cyan | 51 | 2 | 19 | 7 | Pale Blonde
CCCN(CCC)S(=O)(=O)c1cc(/N=N/c2ccc(Cl)c(S(N)(=O)=O)c2)c2c(NS(C)(=O)=O)cccc2c1O [Dye D-2] | 51 | 44 | −10 | 60 | Bright Pink/Magenta | 39 | 21 | 8 | 18 | Pink/Red
Cc1nn2nc(C(C)(C)C)c(/N=N/c3ccc(S(N)(=O)=O)cc3)c2[nH]1 [Dye D-19] | 82 | −4 | 66 | 52 | Intense Yellow | 64 | 4 | 26 | 20 | Intense Yellow
